Measured values published in US10266857B2, “Method for producing Nε-acyl-L-lysine” (AJINOMOTO CO., INC., priority 2015, dated 2019).

Test: Optimum reaction temperature of the enzyme
Type: biochemical
Conditions: 30° C. to 80° C., pH 7.0, 50 mM Tris-HCl buffer

B1: RmELA: amidohydrolase native to Rhodothermus marinus (NCBI; WP_012844854.1, SEQ ID NO: 1), Nε-acyl-L-lysine-specific aminoacylase (protein, listed as Rhodothermus marinus)
chain: MLLLPMQARGQADYVLVNGRLYTVDPAQPVAEAMAVRGDRILMVGTTAQLTAAYPDAPHIDLQGRAVVPGFIDAHAHLMGLGLSRLRADLTGTRSVEEILERLREFARQLPEGAWLLGRGWDQNDWPVKEFPTRQMLDEIFPERPVWLVRIDGHAAWANTAAIRRANPALLTEQIPDPEGGHIVRDAEGRLTGVFIDEAMDLIARHIPPPSEAELEEALRRAVAEANRFGLTGVHDAGASLKTIQGYRRAVDDGTLTLRLYVMVDGLGEAFDYFCEHGPLLDYGGRLTVRSVKFYIDGALGSRGAALLADYSDDPGNRGLLRHEPEVFADMVQRAMKCGFQVNTHAIGDRGVRVVLDAYEKALRTLGRTVGRHRVEHAQVVAPEDFARFAELDLIASMQPTHATSDMYWAEDRLGPERVRGAYAWRTFLEHGVRLAFGSDFPVELANPLLGFYAAITRQDAEGWPEGGWYPEQRLTREEALRAFTLDAAYAAFQEHELGSLTPGKYADFVVLSHDIMTVPPEQILQTRVLATFFGGRCVYHDPEAAGLCPASP
- optimum reaction temperature: 75 °C
- optimum reaction temperature (listed as protein having the amino acid sequence of SEQ ID NO: 1): about 75 °C
